Patent publication US9352004B2, “Muscle-derived cells (MDCs) for treating muscle- or bone-related injury or dysfunction” (University of Pittsburgh—Of the Commonwealth System of …, priority 1998, dated 2016)
Some results were stated once for a whole list of compounds, not compound by compound.

Test system: bladder wall
Format: in vivo, rat
Conditions: evoked by norepinephrine (3 μM) or TBH4

Compound | NO release peak concentration [M]
C[C@H](O)[C@H](O)[C@H]1CNc2nc(N)[nH]c(=O)c2N1 [TBH4, tetrahydrobiopterin] | 1 to 1.3
NC[C@H](O)c1ccc(O)c(O)c1 [norepinephrine] | 1 to 1.3
